# In all, about 52,000 sequences went through this assay and about 210 (0.4%) were called active.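 Rule for the calls: active = gene whose silencing raises cell survival under the drug, median off-target-corrected z-score across its silencing RNAs 2 or more; inactive = the rest.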 This is one part of the list.
# Test: Resistance to Poly (ADP-Ribose) Polymerase inhibitor: Gene Identification via Genome-wide siRNA Screen
# Details: mouse BRCA2 R2336H ES cells, olaparib, CellTiter-Glo viability; hits give high values
# Summary of the method: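 Mouse BRCA2 R2336H ES cells were reverse-transfected with siRNA (20 nM final), treated at 48 h with 500 nM olaparib, and read by CellTiter-Glo after 72 h. Scores: MAD-based z per siRNA, median per gene, seed off-target correction.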
row,Sequence,z-score
1,CCGUCUAUGUAUCGGUGUUTT against Gpr10,inactive: 0.404
2,GGGAGAGGCACAAAGCAUATT against Ubxd3,inactive: 1.27
3,CGAAGACACCGAUAUUUCUTT against E130304D01,inactive: -0.0405
4,CGGUGACGACGGAAUUCUATT against Cpne4,inactive: 0.347
5,CGAAGUCAAGCAGAAAAGATT against C1qtnf1,inactive: -0.687
6,GCCAGAGUUUAUUAACUGCTT against Stxbp6,inactive: -0.26
7,CCUAAAUUUGACUGUGCCUTT against Nudt10,inactive: 0.593
8,CCUCUCUAGGCUAUAACUATT against 4933428G20Rik,inactive: -1.15
9,UACUGAUUCUGCUGGACUCTT against Olfr1474,inactive: -1.5
10,GGUACUACUUCCUUUGGAATT against Slc38a2,inactive: 1.35
11,GGUUAUUUUGUUGGAAGUCTT against BC035295,inactive: -1.61
12,GGACUCUUUAGCACAAACUTT against Tlr11,inactive: 0.636
13,GGCAAGGAUAUAAAUUCACTT against Mak,inactive: 0.148
14,GCAGGAGGUUUAUACAGCCTT against Spata5,inactive: -0.071
15,GCACCCACGAUUAUUGGAATT against Pyp,inactive: 0.219
16,GGUUGAUUUCCUGUUUCUGTT against Casp7,inactive: 0.0188
17,GCUAUACGAAGACUUCAGCTT against 2810435D12Rik,inactive: 1.02
18,CCCUAUUUGUCAGCGGUCUTT against Rbpms,inactive: 1.02
19,CCUGAUGCACUACUCGUCUTT against Otx3,inactive: 1.45
20,GGAGCAGAUUAAAUCCCUGTT against Krt2-8,inactive: 1.25
21,GCAAUGUCUAUUCAAGGUUTT against 1100001I19Rik,inactive: 0.344
22,CCAGCUCUGUACUAAUCCUTT against Nol3,inactive: 0.147
23,GGAUUUUUCAGAUUCUAGATT against Hs6st2,inactive: 0.598
24,GGACUUUUAUUAUUUCCCGTT against D15Bwg0669e,inactive: -0.393
25,GGAGUUUUACUUUUCUCUCTT against Cldn23,inactive: 0.865
26,CCAUCUACAAACUUUGGCCTT against Sacs,inactive: -0.228
27,GGUCAUGUAUUUUCUUCUATT against Olfr576,inactive: 0.203

row,Sequence,z-score
1,CCAGCCAACGAGAACUUUUTT against BC059842,inactive: -1.26
2,GGCAUUUAAUCACUGGCUGTT against Ggps1,inactive: -2.32
3,GCAAAACCGGCGUAUGAGATT against 1110031B06Rik,inactive: 1.1
4,CGACCACACAGGGAUAUACTT against BC010462,inactive: 0.742
5,GGGUACAAAGGCUGUAGUUTT against Sec61a1,inactive: -2.05
6,GGCAGAAGAGUGGUACUUUTT against Fyn,inactive: -1.1
7,GCCUUGACGUGCUUCAGAUTT against Golga7,inactive: -0.03
8,GAACGUGAAGGCCAAGAUCTT against Ubb,inactive: -0.324
9,GACAACAACUCUUGGCAGATT against Speer4d,inactive: 2.46
10,UGGUGAAUACCAGUCUAAUTT against Tnfrsf23,inactive: -0.597
11,GGAAAUUCAGCAUGGAGCCTT against Vgll4,inactive: -0.472
12,GCUUGACUUUGAAAGUCCATT against LOC432615,inactive: -0.487
13,GCUCUUUGACCUUGGCAAATT against 1810034K20Rik,inactive: -0.315
14,GGUGCAAGGUUCUUGUGUUTT against 6030422M02Rik,inactive: -0.453
15,CGUGUGAAGCAGUUAUGAUTT against Pbx3,inactive: 3.25
16,GGCUCAUUCACUAAUCCGATT against Sip1,inactive: 0.0801
17,GCACAUCAUUUUGAGUAUUTT against Spg21,inactive: 0.612
18,GGAAUGGACCUCAAAAUUGTT against 4930579A11Rik,inactive: 0.6
19,GGAGAGUGCUUCACAGACATT against Crlf3,inactive: 0.228
20,GGCCUCUACUUCUUUGAGUTT against Cklfsf4,inactive: 1.02
21,GCCAGUCCUUCAAGUGUAUTT against Jak2,inactive: 1.2
22,CCCAUGUACCACUUUGUCATT against Olfr430,inactive: 1.75
23,GGUAAAAACCCAGAGAUGATT against Rem2,inactive: 0.794
24,GGGUAUUGACUACACCAGCTT against Tnfrsf10b,inactive: 0.362
25,GGUUUGAGUGGAAAAUUCATT against Csnd,inactive: 0.147
26,GGACAAGGAGUAUUAUGUGTT against Nrxn3,inactive: 2.31
27,CCACAAGCAGUGCUCUUUCTT against Cyp3a13,inactive: -0.683

# Laid out differently: results already given.
row	Sequence	z-score
1	CCAGCCAACGAGAACUUUUTT against BC059842	inactive: -1.26
4	CGACCACACAGGGAUAUACTT against BC010462	inactive: 0.742
5	GGGUACAAAGGCUGUAGUUTT against Sec61a1	inactive: -2.05
6	GGCAGAAGAGUGGUACUUUTT against Fyn	inactive: -1.1
7	GCCUUGACGUGCUUCAGAUTT against Golga7	inactive: -0.03
8	GAACGUGAAGGCCAAGAUCTT against Ubb	inactive: -0.324
9	GACAACAACUCUUGGCAGATT against Speer4d	inactive: 2.46
10	UGGUGAAUACCAGUCUAAUTT against Tnfrsf23	inactive: -0.597
11	GGAAAUUCAGCAUGGAGCCTT against Vgll4	inactive: -0.472
12	GCUUGACUUUGAAAGUCCATT against LOC432615	inactive: -0.487
13	GCUCUUUGACCUUGGCAAATT against 1810034K20Rik	inactive: -0.315
14	GGUGCAAGGUUCUUGUGUUTT against 6030422M02Rik	inactive: -0.453
16	GGCUCAUUCACUAAUCCGATT against Sip1	inactive: 0.0801
17	GCACAUCAUUUUGAGUAUUTT against Spg21	inactive: 0.612
19	GGAGAGUGCUUCACAGACATT against Crlf3	inactive: 0.228
20	GGCCUCUACUUCUUUGAGUTT against Cklfsf4	inactive: 1.02
21	GCCAGUCCUUCAAGUGUAUTT against Jak2	inactive: 1.2
22	CCCAUGUACCACUUUGUCATT against Olfr430	inactive: 1.75
23	GGUAAAAACCCAGAGAUGATT against Rem2	inactive: 0.794
24	GGGUAUUGACUACACCAGCTT against Tnfrsf10b	inactive: 0.362
25	GGUUUGAGUGGAAAAUUCATT against Csnd	inactive: 0.147
27	CCACAAGCAGUGCUCUUUCTT against Cyp3a13	inactive: -0.683

# (continued)

row,Sequence,z-score
1,GGGUAGGUCCAAAGCCUUCTT against Olfr902,inactive: 0.482
2,GGACAGAGCCUAGAAAACUTT against Mpdu1,inactive: -1.1
3,GGCAAUUAAAGAAGCCCUCTT against Cyp2c40,inactive: -0.52
4,GGAAAACCAAGACCACAAATT against Nsbp1,inactive: 0.202
5,GCGGAUGCUCAGUGAUGGGTT against Tcp10a,inactive: 1.17
6,CGUACAUGUACCAAAAUAUTT against Angpt1,inactive: 0.668
7,GCAGUCUCCAAUUGAGAUUTT against Car13,inactive: 1.55
8,CGAAGGUAGCCAGUCACAATT against Ppib,inactive: 0.414
9,GGUGAAUGGCAUGACCAUATT against Asb9,inactive: 1.53
10,GGGAUUUCAAGGAAAUAAGTT against Gm466,inactive: 0.898
11,CGAGAAAACACGGACCUCATT against Slc16a6,inactive: 0.644
12,GGCUGGUAAUUCACUUAAUTT against Kcnk2,inactive: -0.0444
13,GCUAAGGACUCAGCAAAACTT against D5Ertd33e,inactive: 1.57
14,CGCGUUGACAUACAUAAAATT against D5Ertd33e,inactive: -0.622
15,GGUAUGAGUGAAGAAAAGATT against Ifi205,inactive: -0.37
16,GCUCAAAAUAACAAGAAGGTT against Ercc5,inactive: 1.51
17,GCUGAAAGCAUCCAAUGGGTT against Epb4.1,inactive: 0.343
18,GCAAGGGCUUUAACUAAGUTT against Wnt2,inactive: -0.000384
19,GCUUGUACCUGUGGAUCGATT against Wif1,inactive: 0.365
20,GGCUCUUAAUUGACUUUGATT against Pctk1,inactive: -0.614
21,GCUCAUACUCCGAAACCUGTT against Etv1,inactive: 2.05
22,CCUAUAAAGACUUAACGAATT against 9030224M15Rik,inactive: 0.794
23,CCAUACCAUUAGUGUCGGCTT against Thea,inactive: -0.803
24,GCUUUAAGGCUUACACAGATT against Klrk1,inactive: 0.416
25,GACCUUCGACACCGACAAATT against 2900027G03Rik,inactive: 0.645
26,CCCACUUGUCUACAGCCUATT against Olfr1505,inactive: -1.96
27,GGAGGAAGAAGAUGAGAUATT against Il4ra,inactive: 1.7

row,Sequence,z-score
1,GGACAUCUCCUCAAUCAUCTT against Gdf10,inactive: 0.845
2,GGAUGAAACUCCUACCACATT against Zfp179,inactive: -2.95
3,GGAAAACCCUGGUACUGAUTT against Mpp2,inactive: -0.543
4,GGUUGUCUGCUAAACCUGCTT against Hmgn2,inactive: 0.475
5,GGAUGAUAUCUCAGUCAUGTT against 2810007J24Rik,inactive: 0.988
6,CGAAGAUGCCAGUUAUGUUTT against MGC58365,inactive: -1.35
7,GGAAUUUGGAAUGGCUACUTT against BC034076,inactive: -1.96
8,CGUGCGAGACAGCUUUUAATT against Gtf2h3,inactive: -1.17
9,GGAGACUUAAGAUGUUACATT against AW049604,inactive: -0.452
10,GGUGGGAAAUUCGUAGACUTT against Pdcd1,inactive: -0.658
11,GCGUAAGGAAUUGUCUAACTT against Hoxd12,inactive: 0.5
12,GGAGGUAAAAAGCAAGACATT against 4930548H24Rik,inactive: 0.722
13,CCAGAUAACAUUAGAACUATT against Nsep1,inactive: -0.478
14,CCAACCAGACUUAUUUAAUTT against Zfp37,inactive: 1.63
15,CCUAGUUUUGAACAUCAGATT against Il13ra1,inactive: 0.675
16,CCUCAAAGUGGAUCAACUGTT against D17H6S53E,inactive: 1.36
17,CCUCUCCCAUGUAGCUUACTT against 1700123D08Rik,inactive: 0.888
18,GGCAGUCAUUACCUAUCAGTT against Atp7b,inactive: 0.423
19,CGAAAAUACGUCAAAGCUCTT against Abca8b,inactive: -0.275
20,GUCAUUGCACCAAAAAUGUTT against Olfr1052,inactive: -0.308
21,GCCAAAUCUACUGUUAUUUTT against 2310044D20Rik,inactive: 0.408
22,GCCAGUUUGCUGAUGGUUGTT against Tmem14c,inactive: 0.0872
23,GGAGAUUUACUGCUCGCUGTT against BB220380,inactive: -0.0155
24,GGAAGUGCUGUUCUUGGGCTT against Smug1,inactive: 1.86

# Source: PubChem BioAssay AID1347423 (Functional Genomics Laboratory (NCATS/FGL), 2020)
